Conditions: 26° C.; MPS 0.785-30 mM
Description: Surface tension was measured using μtrouge S (Kibron Inc., Helsinki Finland). A solution containing GC derivative (300 μL) was placed in the well after calibration and zeroing of the sensor using pure water and air. The measurement was performed at 26° C.

SMILES: C[C@@H]1C[C@H]2[C@@H]3CCC4=CC(=O)C=C[C@]4(C)[C@@]3(F)[C@@H](O)C[C@]2(C)[C@@]1(O)C(=O)COP(=O)(O)O [Dexamethasone phosphate]
- surface activity (surface tension): not surface active at least up to concentration of 50 mM

From US8932627B2, “Liposomal compositions of glucocorticoid and glucocorticoid derivatives” (Yissum Research Development Company of the Hebrew …, priority 2004, dated 2015)
